Reference: the supplement of paper PMC10849652
Some of the results follow.

Protein sequences, listed by entry. Tags and fused reporters are not part of them. Lines headed by an entry give the natural chain unless they say otherwise; changes in a name come on top.
UniProt Q9NR09, whole entry, looked up: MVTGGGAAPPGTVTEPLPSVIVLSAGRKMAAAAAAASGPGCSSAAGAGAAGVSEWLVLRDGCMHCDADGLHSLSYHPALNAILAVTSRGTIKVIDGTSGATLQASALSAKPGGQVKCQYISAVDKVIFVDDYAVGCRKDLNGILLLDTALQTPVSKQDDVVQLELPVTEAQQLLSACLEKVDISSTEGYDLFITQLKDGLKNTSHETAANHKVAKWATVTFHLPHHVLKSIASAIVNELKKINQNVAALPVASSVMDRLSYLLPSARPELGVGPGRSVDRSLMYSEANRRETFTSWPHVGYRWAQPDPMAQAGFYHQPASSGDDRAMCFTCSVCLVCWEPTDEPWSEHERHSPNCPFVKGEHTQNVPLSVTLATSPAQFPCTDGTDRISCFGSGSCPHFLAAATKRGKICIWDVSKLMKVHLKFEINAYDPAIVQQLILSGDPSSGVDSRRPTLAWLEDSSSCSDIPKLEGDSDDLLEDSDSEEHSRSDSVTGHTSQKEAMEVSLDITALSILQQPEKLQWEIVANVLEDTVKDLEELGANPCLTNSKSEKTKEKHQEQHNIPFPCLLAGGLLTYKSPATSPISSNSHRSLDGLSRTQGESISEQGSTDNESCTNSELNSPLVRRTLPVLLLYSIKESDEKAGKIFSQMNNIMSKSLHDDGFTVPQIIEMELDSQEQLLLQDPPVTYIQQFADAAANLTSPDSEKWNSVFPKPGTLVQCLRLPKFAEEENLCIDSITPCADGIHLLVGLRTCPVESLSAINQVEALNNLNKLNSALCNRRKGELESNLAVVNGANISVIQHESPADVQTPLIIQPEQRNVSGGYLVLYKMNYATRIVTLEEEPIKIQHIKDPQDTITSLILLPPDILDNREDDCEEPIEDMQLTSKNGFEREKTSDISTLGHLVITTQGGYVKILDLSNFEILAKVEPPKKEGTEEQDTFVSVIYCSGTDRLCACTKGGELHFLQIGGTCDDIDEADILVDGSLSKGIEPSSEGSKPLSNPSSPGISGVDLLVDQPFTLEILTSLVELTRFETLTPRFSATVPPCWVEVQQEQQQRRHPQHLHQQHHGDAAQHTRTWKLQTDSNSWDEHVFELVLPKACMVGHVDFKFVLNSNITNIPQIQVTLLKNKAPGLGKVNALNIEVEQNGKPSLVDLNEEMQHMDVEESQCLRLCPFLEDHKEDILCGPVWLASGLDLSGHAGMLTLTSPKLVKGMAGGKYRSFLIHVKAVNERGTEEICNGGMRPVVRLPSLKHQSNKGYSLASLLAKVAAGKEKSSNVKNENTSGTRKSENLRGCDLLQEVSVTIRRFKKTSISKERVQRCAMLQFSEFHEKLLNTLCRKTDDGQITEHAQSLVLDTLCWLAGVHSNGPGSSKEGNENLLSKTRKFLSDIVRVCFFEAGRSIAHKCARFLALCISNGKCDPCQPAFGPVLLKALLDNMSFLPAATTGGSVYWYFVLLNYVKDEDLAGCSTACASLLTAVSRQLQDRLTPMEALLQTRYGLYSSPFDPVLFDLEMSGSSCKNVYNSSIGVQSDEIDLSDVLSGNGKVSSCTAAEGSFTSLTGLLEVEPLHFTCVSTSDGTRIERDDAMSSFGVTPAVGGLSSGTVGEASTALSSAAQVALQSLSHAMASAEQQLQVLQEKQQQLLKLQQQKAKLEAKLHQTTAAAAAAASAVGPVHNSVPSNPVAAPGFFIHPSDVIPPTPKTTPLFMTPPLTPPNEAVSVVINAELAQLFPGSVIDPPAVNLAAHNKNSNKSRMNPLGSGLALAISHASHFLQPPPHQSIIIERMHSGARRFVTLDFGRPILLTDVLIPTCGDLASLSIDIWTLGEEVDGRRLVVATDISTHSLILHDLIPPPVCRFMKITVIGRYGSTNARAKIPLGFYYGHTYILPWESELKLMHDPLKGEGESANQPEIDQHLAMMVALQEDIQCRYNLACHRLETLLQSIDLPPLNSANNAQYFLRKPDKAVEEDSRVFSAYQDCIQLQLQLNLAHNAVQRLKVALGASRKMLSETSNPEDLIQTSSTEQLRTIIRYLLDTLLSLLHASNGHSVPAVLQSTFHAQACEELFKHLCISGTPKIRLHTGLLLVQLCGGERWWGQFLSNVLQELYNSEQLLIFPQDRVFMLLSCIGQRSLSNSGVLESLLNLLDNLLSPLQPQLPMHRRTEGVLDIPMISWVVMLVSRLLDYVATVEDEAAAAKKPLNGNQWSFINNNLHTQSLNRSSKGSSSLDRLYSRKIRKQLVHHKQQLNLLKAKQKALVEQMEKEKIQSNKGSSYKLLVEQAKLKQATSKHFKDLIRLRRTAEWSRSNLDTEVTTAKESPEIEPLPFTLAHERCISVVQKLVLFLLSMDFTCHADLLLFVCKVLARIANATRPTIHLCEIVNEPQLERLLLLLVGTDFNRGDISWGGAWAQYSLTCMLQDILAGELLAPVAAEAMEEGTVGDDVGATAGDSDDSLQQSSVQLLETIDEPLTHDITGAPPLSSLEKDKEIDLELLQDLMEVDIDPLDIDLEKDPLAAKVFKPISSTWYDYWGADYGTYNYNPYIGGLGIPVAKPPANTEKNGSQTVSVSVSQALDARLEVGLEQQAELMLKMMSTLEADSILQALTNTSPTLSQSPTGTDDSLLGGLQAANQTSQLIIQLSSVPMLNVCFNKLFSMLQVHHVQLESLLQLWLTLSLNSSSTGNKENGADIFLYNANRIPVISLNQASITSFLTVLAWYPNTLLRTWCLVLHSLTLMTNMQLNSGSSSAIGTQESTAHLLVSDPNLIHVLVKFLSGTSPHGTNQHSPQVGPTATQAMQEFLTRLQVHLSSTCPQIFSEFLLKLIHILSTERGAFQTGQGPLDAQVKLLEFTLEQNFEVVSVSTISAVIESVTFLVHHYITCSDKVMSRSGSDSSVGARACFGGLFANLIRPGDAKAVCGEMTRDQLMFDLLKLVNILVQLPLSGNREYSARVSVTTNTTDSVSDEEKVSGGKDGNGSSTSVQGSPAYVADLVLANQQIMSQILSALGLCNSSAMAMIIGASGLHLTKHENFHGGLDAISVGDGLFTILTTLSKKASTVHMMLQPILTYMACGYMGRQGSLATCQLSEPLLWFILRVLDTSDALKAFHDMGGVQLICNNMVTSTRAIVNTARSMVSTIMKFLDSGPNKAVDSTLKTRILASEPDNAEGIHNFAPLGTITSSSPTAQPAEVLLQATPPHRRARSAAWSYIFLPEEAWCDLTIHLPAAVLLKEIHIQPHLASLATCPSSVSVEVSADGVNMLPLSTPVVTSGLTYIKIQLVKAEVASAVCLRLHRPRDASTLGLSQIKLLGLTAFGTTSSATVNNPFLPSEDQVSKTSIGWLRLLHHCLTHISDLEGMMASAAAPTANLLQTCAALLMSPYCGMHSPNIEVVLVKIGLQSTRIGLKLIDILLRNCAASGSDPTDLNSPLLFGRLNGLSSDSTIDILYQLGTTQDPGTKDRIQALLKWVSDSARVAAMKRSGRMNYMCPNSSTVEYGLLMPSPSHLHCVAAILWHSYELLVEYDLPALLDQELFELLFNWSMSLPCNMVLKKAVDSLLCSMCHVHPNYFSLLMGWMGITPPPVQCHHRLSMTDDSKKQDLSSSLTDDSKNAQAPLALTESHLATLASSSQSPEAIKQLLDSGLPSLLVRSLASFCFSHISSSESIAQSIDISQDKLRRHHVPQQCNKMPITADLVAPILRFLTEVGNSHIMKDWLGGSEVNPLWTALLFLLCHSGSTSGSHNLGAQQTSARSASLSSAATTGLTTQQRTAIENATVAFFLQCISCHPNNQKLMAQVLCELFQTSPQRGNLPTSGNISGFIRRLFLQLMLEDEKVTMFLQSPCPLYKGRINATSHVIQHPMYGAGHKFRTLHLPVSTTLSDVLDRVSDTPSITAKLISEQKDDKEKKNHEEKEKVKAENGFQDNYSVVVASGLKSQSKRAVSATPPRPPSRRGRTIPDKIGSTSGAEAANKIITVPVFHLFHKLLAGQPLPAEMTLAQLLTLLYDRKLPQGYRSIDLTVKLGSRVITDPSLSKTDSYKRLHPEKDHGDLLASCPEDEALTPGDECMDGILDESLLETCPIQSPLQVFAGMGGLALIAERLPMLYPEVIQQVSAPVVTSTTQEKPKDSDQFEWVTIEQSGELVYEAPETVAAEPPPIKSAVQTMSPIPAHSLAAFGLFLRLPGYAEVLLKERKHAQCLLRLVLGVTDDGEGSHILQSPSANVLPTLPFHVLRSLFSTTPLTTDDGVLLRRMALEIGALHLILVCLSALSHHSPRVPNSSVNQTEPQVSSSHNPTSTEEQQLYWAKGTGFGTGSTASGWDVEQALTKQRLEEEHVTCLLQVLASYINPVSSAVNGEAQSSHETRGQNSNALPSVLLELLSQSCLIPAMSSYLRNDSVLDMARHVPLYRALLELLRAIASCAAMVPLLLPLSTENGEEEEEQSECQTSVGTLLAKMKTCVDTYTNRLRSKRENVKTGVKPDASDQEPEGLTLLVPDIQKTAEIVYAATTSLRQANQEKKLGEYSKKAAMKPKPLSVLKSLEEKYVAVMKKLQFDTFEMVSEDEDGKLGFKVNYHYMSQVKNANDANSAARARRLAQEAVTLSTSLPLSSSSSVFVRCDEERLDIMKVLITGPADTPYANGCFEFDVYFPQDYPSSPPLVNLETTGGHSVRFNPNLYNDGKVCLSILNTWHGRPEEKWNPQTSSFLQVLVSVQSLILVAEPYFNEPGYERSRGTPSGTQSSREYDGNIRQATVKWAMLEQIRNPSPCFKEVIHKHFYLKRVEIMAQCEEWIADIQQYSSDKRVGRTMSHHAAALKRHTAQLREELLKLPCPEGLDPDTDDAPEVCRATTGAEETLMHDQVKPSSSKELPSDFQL
UniProt Q9NSY1, whole entry, looked up: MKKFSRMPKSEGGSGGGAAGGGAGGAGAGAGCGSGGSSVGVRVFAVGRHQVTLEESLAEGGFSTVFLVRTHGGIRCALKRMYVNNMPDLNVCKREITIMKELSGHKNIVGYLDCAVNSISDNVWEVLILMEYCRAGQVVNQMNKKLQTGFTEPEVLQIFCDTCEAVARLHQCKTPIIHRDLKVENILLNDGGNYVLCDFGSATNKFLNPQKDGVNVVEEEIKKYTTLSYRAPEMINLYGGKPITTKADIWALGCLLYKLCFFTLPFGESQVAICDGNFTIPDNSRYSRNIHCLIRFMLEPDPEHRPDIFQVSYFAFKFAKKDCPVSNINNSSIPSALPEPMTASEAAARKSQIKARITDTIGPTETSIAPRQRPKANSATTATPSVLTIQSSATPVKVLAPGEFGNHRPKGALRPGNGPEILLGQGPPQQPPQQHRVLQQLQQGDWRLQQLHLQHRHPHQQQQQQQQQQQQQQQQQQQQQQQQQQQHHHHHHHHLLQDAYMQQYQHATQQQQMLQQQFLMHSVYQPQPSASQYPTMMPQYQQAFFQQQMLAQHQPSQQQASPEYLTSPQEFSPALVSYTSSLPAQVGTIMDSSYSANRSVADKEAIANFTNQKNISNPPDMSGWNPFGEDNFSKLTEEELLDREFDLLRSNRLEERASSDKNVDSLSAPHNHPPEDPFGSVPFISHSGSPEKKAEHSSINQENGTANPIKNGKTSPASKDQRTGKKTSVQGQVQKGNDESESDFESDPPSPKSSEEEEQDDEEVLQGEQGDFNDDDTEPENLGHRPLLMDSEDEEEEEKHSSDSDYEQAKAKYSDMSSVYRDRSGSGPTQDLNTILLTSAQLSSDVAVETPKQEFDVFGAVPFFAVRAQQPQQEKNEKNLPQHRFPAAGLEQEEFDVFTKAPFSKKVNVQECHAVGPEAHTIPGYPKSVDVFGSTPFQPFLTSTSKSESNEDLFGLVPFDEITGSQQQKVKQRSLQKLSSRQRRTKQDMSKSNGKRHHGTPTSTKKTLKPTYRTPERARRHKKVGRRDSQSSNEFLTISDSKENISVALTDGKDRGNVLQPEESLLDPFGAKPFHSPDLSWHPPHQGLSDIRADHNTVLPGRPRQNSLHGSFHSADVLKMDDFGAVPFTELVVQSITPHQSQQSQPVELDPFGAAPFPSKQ
UniProt Q53S33: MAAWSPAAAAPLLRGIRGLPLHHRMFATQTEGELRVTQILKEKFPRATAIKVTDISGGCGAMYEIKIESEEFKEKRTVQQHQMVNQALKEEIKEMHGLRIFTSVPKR
UniProt Q9Y679: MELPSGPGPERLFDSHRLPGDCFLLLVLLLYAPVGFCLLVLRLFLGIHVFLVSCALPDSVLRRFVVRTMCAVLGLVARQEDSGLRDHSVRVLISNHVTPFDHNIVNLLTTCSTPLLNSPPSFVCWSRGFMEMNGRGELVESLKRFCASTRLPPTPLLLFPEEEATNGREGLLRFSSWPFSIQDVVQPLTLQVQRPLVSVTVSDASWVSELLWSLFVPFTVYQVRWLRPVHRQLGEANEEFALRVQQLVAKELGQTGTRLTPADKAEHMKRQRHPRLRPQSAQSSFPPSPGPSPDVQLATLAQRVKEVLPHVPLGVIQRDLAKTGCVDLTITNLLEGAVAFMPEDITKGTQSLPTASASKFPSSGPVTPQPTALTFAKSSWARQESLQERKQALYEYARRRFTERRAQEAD

Tests used:
Test in all cases: log2 fold change, soluble protein after heating vs DMSO (PISA); higher = thermal stabilisation; K562 cells, 10 uM, 30 min; active = over 0.2 and 3.5 SD of the protein, either way, in both replicates (recomputed)
bafetinib = compound: Cc1ccc(NC(=O)c2ccc(CN3CC[C@H](N(C)C)C3)c(C(F)(F)F)c2)cc1Nc1nccc(-c2cncnc2)n1 [bafetinib]
Procedure, shortened: (§1)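 K562 cells at 2×10^6 cells/mL were treated with 10 μM compound for 30 min. Aliquots were heated for 3 min across 48°C-58°C, pooled, and extracted in PBS with 0.5% NP-40 at 4°C; soluble protein was the supernatant after 21,000xg for 90 min. Soluble protein was quantified by TMTpro 16plex LC-MS/MS with channel sums equalised, and reported as log2 fold change in thermal stability against DMSO controls, with values from duplicates.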

[1] = compound: Cc1cccc(CC(=O)N2CCc3c2ccc(-c2cn(C)c4ncnc(N)c24)c3F)n1
Procedure, shortened: as §1

nilotinib = compound: Cc1cn(-c2cc(NC(=O)c3ccc(C)c(Nc4nccc(-c5cccnc5)n4)c3)cc(C(F)(F)F)c2)cn1 [nilotinib]
Procedure, shortened: as §1

[2] = compound: Cc1nc(Nc2n[nH]c3c2CN(C(=O)N[C@H](CN(C)C)c2ccccc2)C3(C)C)c2sccc2n1
Procedure, shortened: as §1

dasatinib = compound: Cc1nc(Nc2ncc(C(=O)Nc3c(C)cccc3Cl)s2)cc(N2CCN(CCO)CC2)n1 [dasatinib]
Procedure, shortened: as §1

[3] = compound: Cc1ncc(-c2ccnc(Nc3ccc(S(C)(=O)=O)cc3)n2)n1C(C)C
Procedure, shortened: as §1

[4] = compound: Cn1cc(-c2ccc3c(c2)CCN3C(=O)Cc2cccc(C(F)(F)F)c2)c2c(N)ncnc21
Procedure, shortened: as §1

[5] = compound: Cn1cc(-c2ccc3nnc(C(F)(F)c4ccc5ncccc5c4)n3n2)cn1
Procedure, shortened: as §1

tipifarnib = compound: Cn1cncc1[C@@](N)(c1ccc(Cl)cc1)c1ccc2c(c1)c(-c1cccc(Cl)c1)cc(=O)n2C [tipifarnib]
Procedure, shortened: as §1

mubritinib = compound: FC(F)(F)c1ccc(/C=C/c2nc(COc3ccc(CCCCn4ccnn4)cc3)co2)cc1 [mubritinib]
Procedure, shortened: as §1

[6] = compound: NC(=O)Nc1cc(-c2cccc(F)c2)sc1C(=O)N[C@H]1CCCNC1
Procedure, shortened: as §1

[7] = compound: NC(=O)c1cnc(N[C@@H]2CCCC[C@@H]2N)nc1Nc1cccc(-n2nccn2)c1
Procedure, shortened: as §1

[8] = compound: NC1(c2ccc(-c3nc4ccn5c(=O)[nH]nc5c4cc3-c3ccccc3)cc2)CCC1
Procedure, shortened: as §1

[9] = compound: NCC(=O)Nc1ccc(-n2nc(C(F)(F)F)cc2-c2ccc3c(ccc4ccccc43)c2)cc1
Procedure, shortened: as §1

entinostat = compound: Nc1ccccc1NC(=O)c1ccc(CNC(=O)OCc2cccnc2)cc1 [entinostat]
Procedure, shortened: as §1

vorinostat = compound: O=C(CCCCCCC(=O)Nc1ccccc1)NO [vorinostat]
Procedure, shortened: as §1

citarinostat = compound: O=C(CCCCCCNC(=O)c1cnc(N(c2ccccc2)c2ccccc2Cl)nc1)NO [citarinostat]
Procedure, shortened: as §1

silmitasertib = compound: O=C(O)c1ccc2c(c1)nc(Nc1cccc(Cl)c1)c1ccncc12 [silmitasertib]
Procedure, shortened: as §1

[10] = compound: O=C1NC(=O)C(c2cnc3ccccn23)=C1c1cn2c3c(cc(F)cc13)CN(C(=O)N1CCCCC1)CC2
Procedure, shortened: as §1

[11] = compound: c1cc(OCCN2CCCCC2)cc(-c2n[nH]c3ccc(-c4nnc[nH]4)cc23)c1
Procedure, shortened: as §1

Row | Target | log2 fold change (bafetinib) | log2 fold change [1] | log2 fold change (nilotinib) | log2 fold change [2] | log2 fold change (dasatinib) | log2 fold change [3] | log2 fold change [4] | log2 fold change [5] | log2 fold change (tipifarnib) | log2 fold change (mubritinib) | log2 fold change [6] | log2 fold change [7] | log2 fold change [8] | log2 fold change [9] | log2 fold change (entinostat) | log2 fold change (vorinostat) | log2 fold change (citarinostat) | log2 fold change (silmitasertib) | log2 fold change [10] | log2 fold change [11]
1 | BIRC6 (UniProt Q9NR09) | inactive: 0.057 | inactive: 0.02 | inactive: -0.03 | inactive: 0.015 | inactive: -0.073 | inactive: -0.011 | inactive: 0.008 | inactive: -0.011 | inactive: -0.035 | inactive: 0.037 | inactive: 0.035 | inactive: -0.007 | inactive: -0.1 | inactive: 0.003 | inactive: 0.014 | inactive: 0 | inactive: -0.031 | inactive: 0.04 | inactive: 0.016 | inactive: 0.055
2 | BIRC2 (UniProt Q13490) | inactive: -0.026 | inactive: -0.066 | inactive: 0.021 | inactive: -0.054 | inactive: -0.103 | inactive: -0.011 | inactive: 0.039 | inactive: 0.024 | inactive: -0.012 | inactive: 0.02 | inactive: -0.048 | inactive: -0.07 | inactive: -0.042 | inactive: -0.066 | inactive: -0.044 | inactive: 0.075 | inactive: 0.019 | inactive: -0.041 | inactive: -0.044 | inactive: -0.07
3 | BICD1 (UniProt Q96G01) | inactive: 0.059 | inactive: -0.031 | inactive: 0.075 | inactive: -0.057 | inactive: -0.132 | inactive: 0.044 | inactive: 0.057 | inactive: 0.16 | inactive: -0.048 | inactive: 0.039 | inactive: 0.003 | inactive: -0.064 | inactive: -0.039 | inactive: -0.01 | inactive: 0.003 | inactive: 0.015 | inactive: 0.045 | inactive: 0.152 | inactive: 0.036 | inactive: -0.081
4 | BCCIP isoform 2 (UniProt Q9P287) | inactive: 0.014 | inactive: 0.021 | inactive: -0.046 | inactive: -0.029 | inactive: -0.071 | inactive: 0.017 | inactive: -0.064 | inactive: -0.007 | inactive: -0.015 | inactive: -0.023 | inactive: 0 | inactive: -0.001 | inactive: -0.096 | inactive: -0.011 | inactive: 0.027 | inactive: 0.033 | inactive: 0.021 | inactive: 0.096 | inactive: -0.029 | inactive: -0.031
5 | BPHL (UniProt Q86WA6) | inactive: -0.005 | inactive: 0.002 | inactive: -0.032 | inactive: -0.034 | inactive: -0.032 | inactive: -0.021 | inactive: 0.082 | inactive: 0.009 | inactive: 0.032 | inactive: -0.008 | inactive: -0.014 | inactive: -0.081 | inactive: 0.255 | inactive: -0.012 | inactive: 0.019 | inactive: -0.04 | inactive: -0.042 | inactive: -0.045 | inactive: -0.06 | inactive: 0.051
6 | BMP2K (UniProt Q9NSY1) | inactive: 0.037 | inactive: -0.107 | inactive: -0.067 | active: 0.534 | inactive: 0 | inactive: 0.34 | inactive: -0.016 | inactive: -0.036 | inactive: 0.016 | inactive: -0.042 | inactive: 0.297 | inactive: 0.076 | inactive: 0.035 | inactive: -0.007 | inactive: -0.037 | inactive: -0.078 | inactive: -0.053 | inactive: 0.031 | inactive: 0.291 | inactive: 0.241
7 | BORCS6 (UniProt Q96GS4) | inactive: -0.066 | inactive: 0.043 | inactive: -0.016 | inactive: 0.043 | inactive: 0.069 | inactive: -0.106 | inactive: 0.048 | inactive: 0.012 | inactive: 0.002 | inactive: 0.083 | inactive: -0.036 | inactive: -0.032 | inactive: -0.115 | inactive: 0.027 | inactive: 0.004 | inactive: 0.065 | inactive: 0.064 | inactive: -0.049 | inactive: -0.105 | inactive: -0.006
8 | BCAS1 (UniProt O75363) | inactive: -0.059 | inactive: -0.018 | inactive: 0.013 | inactive: 0.013 | inactive: 0.041 | inactive: 0.005 | inactive: 0.077 | inactive: -0.119 | inactive: 0.006 | inactive: -0.182 | inactive: -0.014 | inactive: 0.049 | inactive: 0.015 | inactive: 0.037 | inactive: 0.015 | inactive: -0.001 | inactive: 0.014 | inactive: 0.056 | inactive: 0 | inactive: -0.022
9 | BLOC1S5 (UniProt Q8TDH9) | inactive: 0.075 | inactive: 0.015 | inactive: 0.007 | inactive: 0.08 | inactive: 0.01 | inactive: 0.003 | inactive: 0.01 | inactive: 0.038 | inactive: -0.077 | inactive: 0.001 | inactive: 0.01 | inactive: 0.031 | inactive: -0.017 | inactive: -0.01 | inactive: -0.054 | inactive: -0.022 | inactive: 0.032 | inactive: -0.013 | inactive: -0.014 | inactive: -0.067
10 | BLOC1S2 (UniProt Q6QNY1) | inactive: -0.105 | inactive: 0.037 | inactive: 0.007 | inactive: -0.06 | inactive: 0.038 | inactive: 0.008 | inactive: 0.041 | inactive: 0.031 | inactive: -0.107 | inactive: 0.036 | inactive: -0.033 | inactive: -0.052 | inactive: -0.043 | inactive: 0.049 | inactive: -0.041 | inactive: -0.001 | inactive: 0.17 | inactive: 0.067 | inactive: -0.086 | inactive: -0.018
11 | B3GNT2 (UniProt Q9NY97) | inactive: -0.057 | inactive: -0.034 | inactive: 0.025 | inactive: -0.055 | inactive: -0.08 | inactive: -0.023 | inactive: 0.056 | inactive: 0.004 | inactive: 0.042 | inactive: 0.084 | inactive: -0.117 | inactive: 0 | inactive: -0.041 | inactive: 0.05 | inactive: -0.023 | inactive: -0.014 | inactive: -0.008 | inactive: -0.017 | inactive: -0.071 | inactive: -0.023
12 | BCL2L1 (UniProt Q07817) | inactive: 0.009 | inactive: -0.083 | inactive: 0.051 | inactive: 0.002 | inactive: -0.086 | inactive: 0.021 | inactive: 0.051 | inactive: -0.049 | inactive: 0.042 | inactive: 0.027 | inactive: 0.05 | inactive: -0.03 | inactive: 0.021 | inactive: -0.001 | inactive: 0.099 | inactive: 0.127 | inactive: 0.084 | inactive: 0.012 | inactive: -0.011 | inactive: -0.043
13 | BRK1 isoform 2 (UniProt Q8WUW1) | inactive: -0.043 | inactive: 0.007 | inactive: 0.02 | inactive: -0.051 | inactive: 0.054 | inactive: -0.051 | inactive: 0.047 | inactive: 0.186 | inactive: -0.049 | inactive: 0.002 | inactive: -0.071 | inactive: 0.033 | inactive: -0.019 | inactive: 0.065 | inactive: 0.079 | inactive: -0.06 | inactive: 0.031 | inactive: -0.063 | inactive: -0.16 | inactive: -0.078
14 | BOLA3 (UniProt Q53S33) | inactive: -0.064 | inactive: -0.033 | inactive: 0.013 | inactive: 0.013 | inactive: 0.076 | inactive: -0.004 | inactive: 0.036 | inactive: 0.034 | inactive: 0.007 | inactive: 0.042 | inactive: -0.034 | inactive: -0.009 | inactive: -0.031 | inactive: 0 | inactive: -0.023 | inactive: -0.024 | inactive: 0.011 | inactive: -0.008 | inactive: 0.012 | inactive: 0.003
15 | BACH1 (UniProt O14867) | inactive: -0.045 | inactive: -0.07 | inactive: -0.002 | inactive: 0 | inactive: 0.034 | inactive: -0.009 | inactive: 0.005 | inactive: -0.075 | inactive: 0.016 | inactive: 0.022 | inactive: 0.022 | inactive: -0.006 | inactive: 0.013 | inactive: 0 | inactive: -0.024 | inactive: -0.066 | inactive: -0.041 | inactive: -0.017 | inactive: 0.019 | inactive: -0.033
16 | AUP1 (UniProt Q9Y679) | inactive: -0.023 | inactive: 0.11 | inactive: -0.102 | inactive: -0.055 | inactive: -0.097 | inactive: 0.018 | inactive: 0.01 | inactive: -0.03 | inactive: -0.106 | inactive: 0.033 | inactive: -0.013 | inactive: -0.082 | active: -0.236 | inactive: -0.107 | inactive: 0.061 | inactive: 0.135 | inactive: 0.067 | inactive: 0.019 | inactive: 0.064 | inactive: -0.051

Quoted at random: two entries already listed.
Row | Target | log2 fold change (bafetinib) | log2 fold change [1] | log2 fold change (nilotinib) | log2 fold change [2] | log2 fold change (dasatinib) | log2 fold change [3] | log2 fold change [4] | log2 fold change [5] | log2 fold change (tipifarnib) | log2 fold change (mubritinib) | log2 fold change [6] | log2 fold change [7] | log2 fold change [8] | log2 fold change [9] | log2 fold change (entinostat) | log2 fold change (vorinostat) | log2 fold change (citarinostat) | log2 fold change (silmitasertib) | log2 fold change [10] | log2 fold change [11]
4 | BCCIP isoform 2 (UniProt Q9P287) | inactive: 0.014 | inactive: 0.021 | inactive: -0.046 | inactive: -0.029 | inactive: -0.071 | inactive: 0.017 | inactive: -0.064 | inactive: -0.007 | inactive: -0.015 | inactive: -0.023 | inactive: 0 | inactive: -0.001 | inactive: -0.096 | inactive: -0.011 | inactive: 0.027 | inactive: 0.033 | inactive: 0.021 | inactive: 0.096 | inactive: -0.029 | inactive: -0.031
11 | B3GNT2 (UniProt Q9NY97) | inactive: -0.057 | inactive: -0.034 | inactive: 0.025 | inactive: -0.055 | inactive: -0.08 | inactive: -0.023 | inactive: 0.056 | inactive: 0.004 | inactive: 0.042 | inactive: 0.084 | inactive: -0.117 | inactive: 0 | inactive: -0.041 | inactive: 0.05 | inactive: -0.023 | inactive: -0.014 | inactive: -0.008 | inactive: -0.017 | inactive: -0.071 | inactive: -0.023
